Results deposited as PubChem BioAssay AID1259405 (NCATS, 2018)
The whole screen tested about 50,000 reagents; below is a random part of them. About 4,000 of all reagents (8%) were called active. 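Mouse siRNA library applied to hamster cells; one well for each siRNA.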 The numbers tell different reagents against one gene apart.

Test: 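Knock-downs that lift recombinant protein yield in hamster ovary cells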 (primary screen)
Cells: Chinese hamster CHO-K1 ovary cells with stable secreted eGFP expression
Reagent: single siRNA against mouse genes, 0.8 pmol siRNA per well (2 µl of 400 nM stock)
Timing: 3 days
Measured: 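Per-well intracellular GFP measured by laser scanning cytometry, plus viability from ATP luminescence, each relative to plate median of non-targeting control wells, in %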
Reading the numbers: GFP, % of control: higher = more GFP per well, higher productivity; viability (ATP), % of control: higher = more viable cells (more ATP)
Call rule: 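a knock-down is called active if GFP reaches 120% or more of non-targeting control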

| gene | reagent no. | GFP, % of control | viability (ATP), % of control | Call |
| --- | --- | --- | --- | --- |
| Tomm7 (translocase of outer mitochondrial membrane 7) | 1 | 68.6 | 70.6 | inactive |
| Tomm7 (translocase of outer mitochondrial membrane 7) | 2 | 82.1 | 78.4 | inactive |
| Tomm7 (translocase of outer mitochondrial membrane 7) | 3 | 50.5 | 67.7 | inactive |
| Myl4 (myosin, light polypeptide 4) | 1 | 38.6 | 50.6 | inactive |
| Myl4 (myosin, light polypeptide 4) | 2 | 86.7 | 77.2 | inactive |
| Myl4 (myosin, light polypeptide 4) | 3 | 61.5 | 69.5 | inactive |
| Etv1 (ets variant 1) | 1 | 91.1 | 83.8 | inactive |
| Etv1 (ets variant 1) | 2 | 60.9 | 57.6 | inactive |
| Etv1 (ets variant 1) | 3 | 105 | 111 | inactive |
| Cdk12 (cyclin dependent kinase 12) | 1 | 93.2 | 73.1 | inactive |
| Asb14 (ankyrin repeat and SOCS box-containing 14) | 1 | 30.3 | 29.7 | inactive |
| Asb14 (ankyrin repeat and SOCS box-containing 14) | 2 | 69.1 | 72.4 | inactive |
| Asb14 (ankyrin repeat and SOCS box-containing 14) | 3 | 69.8 | 69 | inactive |
| Or7g21 (olfactory receptor family 7 subfamily G member 21) | 1 | 132 | 90.3 | active |
| Or7g21 (olfactory receptor family 7 subfamily G member 21) | 2 | 110 | 59.7 | inactive |
| Or7g21 (olfactory receptor family 7 subfamily G member 21) | 3 | 61.1 | 78 | inactive |
| Numa1 (nuclear mitotic apparatus protein 1) | 1 | 39.6 | 38.9 | inactive |
| Numa1 (nuclear mitotic apparatus protein 1) | 2 | 41.3 | 51.4 | inactive |
| Numa1 (nuclear mitotic apparatus protein 1) | 3 | 74.3 | 62.4 | inactive |
| Ddx21 (DExD box helicase 21) | 1 | 98.4 | 55.8 | inactive |
| Ddx21 (DExD box helicase 21) | 2 | 93.3 | 83.4 | inactive |
| Ddx21 (DExD box helicase 21) | 3 | 108 | 91.9 | inactive |
| Mxd3 (Max dimerization protein 3) | 1 | 67.5 | 44.2 | inactive |
| Mxd3 (Max dimerization protein 3) | 2 | 79.1 | 80.4 | inactive |
| Mxd3 (Max dimerization protein 3) | 3 | 85.5 | 104 | inactive |
| Hspa12b (heat shock protein family A (Hsp70) member 12B) | 1 | 68.8 | 79.5 | inactive |
| Hspa12b (heat shock protein family A (Hsp70) member 12B) | 2 | 94.7 | 66.5 | inactive |
| Hspa12b (heat shock protein family A (Hsp70) member 12B) | 3 | 119 | 87.7 | inactive |
| Zgpat (zinc finger, CCCH-type with G patch domain) | 1 | 84.9 | 70.1 | inactive |
| Zgpat (zinc finger, CCCH-type with G patch domain) | 2 | 62.2 | 62.5 | inactive |
| Zgpat (zinc finger, CCCH-type with G patch domain) | 3 | 172 | 148 | active |
| Il20 (interleukin 20) | 1 | 84.1 | 79.4 | inactive |
| Il20 (interleukin 20) | 2 | 66.8 | 59 | inactive |
| Il20 (interleukin 20) | 3 | 57.5 | 62.9 | inactive |
| Mterf4 (mitochondrial transcription termination factor 4) | 1 | 98.8 | 80.8 | inactive |
| Mterf4 (mitochondrial transcription termination factor 4) | 2 | 50 | 73.4 | inactive |
| Mterf4 (mitochondrial transcription termination factor 4) | 3 | 135 | 112 | active |
| Yipf4 (Yip1 domain family, member 4) | 1 | 91.5 | 90.7 | inactive |
| Yipf4 (Yip1 domain family, member 4) | 2 | 49 | 57.5 | inactive |
| Yipf4 (Yip1 domain family, member 4) | 3 | 66.5 | 76 | inactive |

In a second layout: results already given.
gene | reagent no. | GFP, % of control | viability (ATP), % of control | Call
Myl4 (myosin, light polypeptide 4) | 1 | 38.6 | 50.6 | inactive
Myl4 (myosin, light polypeptide 4) | 2 | 86.7 | 77.2 | inactive
Myl4 (myosin, light polypeptide 4) | 3 | 61.5 | 69.5 | inactive
Etv1 (ets variant 1) | 1 | 91.1 | 83.8 | inactive
Etv1 (ets variant 1) | 2 | 60.9 | 57.6 | inactive
Etv1 (ets variant 1) | 3 | 105 | 111 | inactive
Cdk12 (cyclin dependent kinase 12) | 1 | 93.2 | 73.1 | inactive
Asb14 (ankyrin repeat and SOCS box-containing 14) | 1 | 30.3 | 29.7 | inactive
Asb14 (ankyrin repeat and SOCS box-containing 14) | 2 | 69.1 | 72.4 | inactive
Asb14 (ankyrin repeat and SOCS box-containing 14) | 3 | 69.8 | 69 | inactive
Or7g21 (olfactory receptor family 7 subfamily G member 21) | 1 | 132 | 90.3 | active
Or7g21 (olfactory receptor family 7 subfamily G member 21) | 2 | 110 | 59.7 | inactive
Or7g21 (olfactory receptor family 7 subfamily G member 21) | 3 | 61.1 | 78 | inactive
Numa1 (nuclear mitotic apparatus protein 1) | 1 | 39.6 | 38.9 | inactive
Numa1 (nuclear mitotic apparatus protein 1) | 2 | 41.3 | 51.4 | inactive

Additional reagents:
| gene | reagent no. | GFP, % of control | viability (ATP), % of control | Call |
| --- | --- | --- | --- | --- |
| Slc36a2 | 1 | 141 | 102 | active |
| Slc36a2 | 2 | 44.4 | 46.6 | inactive |
| Slc36a2 | 3 | 100 | 97.1 | inactive |
| Or2y1e (olfactory receptor family 2 subfamily Y member 1E) | 1 | 102 | 95.3 | inactive |
| Or2y1e (olfactory receptor family 2 subfamily Y member 1E) | 2 | 48.4 | 58.7 | inactive |
| Or2y1e (olfactory receptor family 2 subfamily Y member 1E) | 3 | 54.2 | 95.6 | inactive |
| Ighg3 (Immunoglobulin heavy constant gamma 3) | 1 | 40.9 | 60.4 | inactive |
| Ighg3 (Immunoglobulin heavy constant gamma 3) | 2 | 61.4 | 35.6 | inactive |
| Ighg3 (Immunoglobulin heavy constant gamma 3) | 3 | 116 | 56.5 | inactive |
| Iars1 (isoleucyl-tRNA synthetase 1) | 1 | 70 | 80.8 | inactive |
| Iars1 (isoleucyl-tRNA synthetase 1) | 2 | 54.1 | 77.9 | inactive |
| Ube2d2b (ubiquitin-conjugating enzyme E2D 2B) | 1 | 90.6 | 79.3 | inactive |
| Ube2d2b (ubiquitin-conjugating enzyme E2D 2B) | 2 | 104 | 81.7 | inactive |
| Ube2d2b (ubiquitin-conjugating enzyme E2D 2B) | 3 | 86.4 | 65.1 | inactive |
| Vmn1r10 (vomeronasal 1 receptor 10) | 1 | 111 | 81.8 | inactive |
| Vmn1r10 (vomeronasal 1 receptor 10) | 2 | 55.9 | 46.3 | inactive |
| Vmn1r10 (vomeronasal 1 receptor 10) | 3 | 61.9 | 58.1 | inactive |
| Gnat2 (G protein subunit alpha transducin 2) | 1 | 107 | 105 | inactive |
| Gnat2 (G protein subunit alpha transducin 2) | 2 | 207 | 112 | active |
| Gnat2 (G protein subunit alpha transducin 2) | 3 | 85.2 | 77.8 | inactive |
| Metrnl (meteorin, glial cell differentiation regulator-like) | 1 | 76 | 94.9 | inactive |
| Metrnl (meteorin, glial cell differentiation regulator-like) | 2 | 61.6 | 81.2 | inactive |
| Metrnl (meteorin, glial cell differentiation regulator-like) | 3 | 187 | 158 | active |
| Irag2 (inositol 1,4,5-triphosphate receptor associated 2) | 1 | 154 | 90.1 | active |
| Irag2 (inositol 1,4,5-triphosphate receptor associated 2) | 2 | 29.8 | 49 | inactive |
| Irag2 (inositol 1,4,5-triphosphate receptor associated 2) | 3 | 79.2 | 48.6 | inactive |
| Crygb (crystallin, gamma B) | 1 | 86.1 | 82.6 | inactive |
| Crygb (crystallin, gamma B) | 2 | 59.3 | 60.1 | inactive |
| Crygb (crystallin, gamma B) | 3 | 131 | 134 | active |
| Sarnp (SAP domain containing ribonucleoprotein) | 1 | 90.4 | 64.7 | inactive |
| Sarnp (SAP domain containing ribonucleoprotein) | 2 | 76 | 82.4 | inactive |
| Sarnp (SAP domain containing ribonucleoprotein) | 3 | 31.4 | 16.7 | inactive |
| Atad2b (ATPase family, AAA domain containing 2B) | 1 | 73.5 | 56.9 | inactive |
| Atad2b (ATPase family, AAA domain containing 2B) | 2 | 88.9 | 93.3 | inactive |
| Atad2b (ATPase family, AAA domain containing 2B) | 3 | 69.7 | 50.8 | inactive |
| Cacna1f (calcium channel, voltage-dependent, alpha 1F subunit) | 1 | 59 | 78.4 | inactive |
| Cacna1f (calcium channel, voltage-dependent, alpha 1F subunit) | 2 | 70.9 | 52.8 | inactive |
| Cacna1f (calcium channel, voltage-dependent, alpha 1F subunit) | 3 | 91.9 | 69.6 | inactive |
| Ribc1 (RIB43A domain with coiled-coils 1) | 1 | 34 | 47.2 | inactive |
| Ribc1 (RIB43A domain with coiled-coils 1) | 2 | 76.4 | 79.1 | inactive |
| Ribc1 (RIB43A domain with coiled-coils 1) | 3 | 84.2 | 69.2 | inactive |
| Exosc2 (exosome component 2) | 1 | 117 | 127 | inactive |
| Exosc2 (exosome component 2) | 2 | 92.7 | 105 | inactive |
| Exosc2 (exosome component 2) | 3 | 53.1 | 43.1 | inactive |
| Trim61 (tripartite motif-containing 61) | 1 | 97.2 | 76.1 | inactive |
| Trim61 (tripartite motif-containing 61) | 2 | 90.8 | 77.9 | inactive |
| Trim61 (tripartite motif-containing 61) | 3 | 71.3 | 72 | inactive |
| Dmbx1 (diencephalon/mesencephalon homeobox 1) | 1 | 72.9 | 57.2 | inactive |
| Dmbx1 (diencephalon/mesencephalon homeobox 1) | 2 | 70.2 | 64.7 | inactive |
| Dmbx1 (diencephalon/mesencephalon homeobox 1) | 3 | 43.9 | 43.9 | inactive |
| Dll1 (delta like canonical Notch ligand 1) | 1 | 115 | 84.1 | inactive |
| Dll1 (delta like canonical Notch ligand 1) | 2 | 119 | 66 | inactive |
| Dll1 (delta like canonical Notch ligand 1) | 3 | 64.5 | 57.4 | inactive |
| Rtn1 (reticulon 1) | 1 | 162 | 113 | active |
| Rtn1 (reticulon 1) | 2 | 34.7 | 23.9 | inactive |
| Rtn1 (reticulon 1) | 3 | 77.2 | 61.4 | inactive |
| Ablim3 (actin binding LIM protein family, member 3) | 1 | 85.1 | 83.4 | inactive |
| Ablim3 (actin binding LIM protein family, member 3) | 2 | 82.2 | 82.5 | inactive |
| Zswim5 (zinc finger SWIM-type containing 5) | 1 | 46.5 | 61.5 | inactive |
| Zswim5 (zinc finger SWIM-type containing 5) | 2 | 194 | 50.6 | active |
| Zswim5 (zinc finger SWIM-type containing 5) | 3 | 79.8 | 100 | inactive |
| Zswim5 (zinc finger SWIM-type containing 5) | 4 | 83.1 | 86.8 | inactive |
| Zswim5 (zinc finger SWIM-type containing 5) | 5 | 104 | 104 | inactive |
| Zswim5 (zinc finger SWIM-type containing 5) | 6 | 124 | 85.8 | active |
| Colec12 (collectin sub-family member 12) | 1 | 73.8 | 41.8 | inactive |
| Colec12 (collectin sub-family member 12) | 2 | 47.2 | 62.3 | inactive |
| Colec12 (collectin sub-family member 12) | 3 | 38.2 | 57.7 | inactive |
